Results are given in words; binding and its absence hold for the method and conditions named. In cells and extracts the contact can be indirect. Here binding means that the protein was enriched with, or labelled near, the bait; the list need not be complete.
Legend:
Experiment in all cases: affinity purification with mass spectrometry
[1] = biological target: SARS-CoV-2 ORF7a, C-terminally HA-tagged (A549) (SARS-CoV-2) (UniProt P0DTC7)
[2] = biological target: SARS-CoV-2 ORF8, C-terminally HA-tagged (A549) (SARS-CoV-2) (UniProt P0DTC8)
[3] = biological target: SARS-CoV-2 ORF7b, C-terminally HA-tagged (A549) (SARS-CoV-2) (UniProt P0DTD8)
[4] = biological target: SARS-CoV-2 NSP13, C-terminally HA-tagged (A549) (SARS-CoV-2) (UniProt P0DTD1)
[5] = biological target: SARS-CoV N, C-terminally HA-tagged (A549) (SARS-CoV) (UniProt P59595)

ATR (endogenous, A549) (from UniProt Q13535 1-2644)
binding [1]: binds

LTBP1 (endogenous, A549) (from UniProt Q14766 24-1721)
binding [2]: binds

MAVS (endogenous, A549) (from UniProt Q7Z434 1-540)
binding [3]: binds

RING1 (endogenous, A549) (from UniProt Q06587 1-406)
binding [4]: binds

UNC93B1 (endogenous, A549) (from UniProt Q9H1C4 1-597)
binding [3]: binds

USP9X (endogenous, A549) (from UniProt Q93008 1-2554)
binding [5]: binds

USP34 (endogenous, A549) (from UniProt Q70CQ2 1-3546)
binding [1]: binds

From article doi:10.1101/2020.06.17.156455
